The record followed here is doi:10.1101/2022.02.05.479199.

Construct, isoform or probe ends are uncertain for at least one entry.

Data set [1] deals with RPA-DBD-D-Cy3 + Rtt105-Cy5 (C13S). The data set can be described thus: stopped-flow FRET. Particulars: preformed complex, remodeling kobs 3.3 s-1.
Data set [2] has as its system RPA-DBD-A-Cy3 + Rtt105-Cy5 (C13S). The data set can be described thus: stopped-flow FRET. The note with it: preformed complex, remodeling kobs 0.62 s-1.
Data set [3] concerns RPA-DBD-D-Cy5 + Rtt105. The data set can be described thus: stopped-flow FRET. The note with it: with Rtt105, kobs 0.5, 48, 3.6 s-1, slower binding.
Data set [4] concerns RPA-DBD-D-Cy5 (Saccharomyces cerevisiae). The data set can be described thus: stopped-flow FRET. Particulars: no Rtt105, kobs 100.3, 16, 1.4 s-1.
For data set [5], the system named is RPA-DBD-A-Cy5 + Rtt105. In words: stopped-flow FRET. Particulars: with Rtt105, kobs1 15, kobs2 1.9 s-1.
The test system of data set [6] is RPA-DBD-A-Cy5 (Saccharomyces cerevisiae). The data set can be described thus: stopped-flow FRET. The note with it: no Rtt105, kobs1 18.2, kobs2 2.7 s-1.
Data set [7] relates to RPA-DBD-A-Cy3 + RPA-DBD-D-Cy3. In words: FRET.

As for “TTTTTTTTTTTTTTTTTTTTTTTTTTTTTTTTTTT [(dT)35]”, the binding result in data set [1] and in data set [2] was “binds” in each case.

Consider “TTTTTTTTTTTTTTTTTTTTTTTTTTTTTTTTTTTTTTTT [3'-Cy3-(dT)40]”, for which the binding result in data set [3] and in data set [4] was “binds” each time.

Regarding “TTTTTTTTTTTTTTTTTTTTTTTTTTTTTTTTTTTTTTTT [5'-Cy3-(dT)40]”, the binding result in data set [5] and in data set [6] was “binds” each time.

For the sequence “TTTTTTTTTTTTTTTTTTTTTTTTTTTTTTTTTTTTTTTTTTTTTTTTTTTTTTTTTTTTTTTTTTTTTTTTTTTTTTTTTTTTTTTTTTTTTTTTT [(dT)97]”, the binding result in data set [7] is recorded as “binds”.
